{
  "source": "paper PMC8536575",
  "about": "“Acute effects of the imidacloprid metabolite desnitro-imidacloprid on human nACh receptors relevant for neuronal signaling” (Archives of Toxicology, 2021)",
  "origin": "cited, not measured here",
  "settings": "human, in vivo; cited from earlier work",
  "data": [
    {"smiles": "CC(C)NCC(O)COc1ccc(CC(N)=O)cc1", "note": "(centres unmarked) [Atenolol, atenolol]", "values": [
      {"measurement": "reported mean AUC", "value": 3534, "unit": "ng·h/mL"},
      {"measurement": "reported mean Cmax", "value": 409.3, "unit": "ng/mL"}
    ]}
  ]
}
